# In PubChem BioAssay AID651660 (Broad Institute, 2012):
# Chains of the proteins cited; added tags and fusions are not shown. Lines headed by an entry give the natural chain unless they say otherwise; changes in a name come on top.
# UniProt P43351: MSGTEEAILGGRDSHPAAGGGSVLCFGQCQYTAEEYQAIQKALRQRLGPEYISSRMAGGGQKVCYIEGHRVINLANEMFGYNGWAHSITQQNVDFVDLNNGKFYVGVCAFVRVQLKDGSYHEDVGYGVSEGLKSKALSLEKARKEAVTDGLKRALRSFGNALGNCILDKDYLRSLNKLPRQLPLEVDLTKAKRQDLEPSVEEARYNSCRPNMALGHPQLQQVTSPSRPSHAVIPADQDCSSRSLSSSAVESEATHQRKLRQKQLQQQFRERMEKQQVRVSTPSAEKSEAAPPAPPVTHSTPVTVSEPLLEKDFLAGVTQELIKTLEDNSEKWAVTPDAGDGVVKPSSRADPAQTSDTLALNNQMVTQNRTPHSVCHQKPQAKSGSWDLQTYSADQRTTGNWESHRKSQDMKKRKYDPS
# The whole screen tested about 1,900 compounds, of which about 15 (0.8%) were called active.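 How the source made its calls: active means every replicate shows at least 50% inhibition; inconclusive means mean inhibition at least 50% but some replicate below; inactive means the rest.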 The list shows a part of the results.
# Target: DNA repair protein RAD52 homolog (Homo sapiens) (UniProt P43351)
# Assay: inhibition of RAD52-mediated strand annealing – biochemical, FRET, single point, primary screen (AID 651660);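 further: 0% = median of neutral control wells and 100% = median of positive control wells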
# Settings: Recombinant RAD52 ssDNA annealing, FRET fluorescence, 30 min; at 18.7 µM; active compounds read high
row,SMILES,inhibition
1,COc1cc(NC(=S)NC(=O)c2cccs2)ccc1NC(=O)C(C)C,inactive: 0.955%
2,NNC(=O)c1ccncc1,inactive: -4.11%
3,COc1ccc(C2C3C(C)=NN=C3CC(C)(O)C2C(C)=O)cc1 (stereo not drawn),inactive: -7.78%
4,COc1cccc(OCc2nnc(-c3cccs3)o2)c1,inactive: 3.65%
5,CC12CCC(C(=O)N3CCCCC3)([C@H](Br)C1=O)C2(C)C (stereo partly drawn),inactive: -5.47%
6,COc1ccccc1OS(=O)(=O)c1ccc(NC(C)=O)cc1,inactive: 3.22%
7,CC(=O)Nc1ccc(CN2CCN(C3CCCCC3)C(CCO)C2)cc1 (stereo not drawn),inactive: -3.98%
8,CC1(C)O[C@@H]2C[C@H]3[C@@H]4C[C@H](F)C5=CC(=O)CC[C@]5(C)[C@H]4[C@@H](O)C[C@]3(C)[C@]2(C(=O)CO)O1,inactive: 4.52%
9,CC12CCC(C(=O)NCc3ccc4c(c3)OCO4)(CC1=O)C2(C)C (stereo not drawn),inactive: -2.64%
10,CN1C(=O)NC(c2ccc(O)cc2)C2=C1CN(c1cccc3ccccc13)C2=O (stereo not drawn),inactive: -2.34%
11,Cc1ccccc1N1C(N)=NC(N)=NC1(C)C,inactive: -5.65%
12,COCCCN1C(=O)/C(=C\c2cccs2)C(C(=O)OC)=C1C,inactive: -5.14%
13,O=C(O)c1cccnc1,inactive: -0.217%
14,CCCCc1oc2ccccc2c1C(=O)c1cc(I)c(OCCN(CC)CC)c(I)c1,active: 72.2%
15,Cc1cccc(N(C)C(=S)Oc2ccc3ccccc3c2)c1,inactive: 8.78%
16,COc1ccc(C(=O)Nc2ccccc2C(=O)NC(Cc2c[nH]c3ccccc23)C(=O)O)cc1 (stereo not drawn),inactive: 3%
17,O=C(O)c1cc2cc(F)ccc2[nH]1,inactive: -2.8%
18,COc1ccc(NC(=O)C2OC3OC(C)(C)OC3C3OC(C)(C)OC23)cc1 (stereo not drawn),inactive: -9.37%
19,O=c1c2ccccc2nc2n1CCCN2,inactive: -7.29%
20,CC(=O)Oc1ccc(C(=O)O)cc1OC(C)=O,inactive: -4.38%
21,CCOC(=O)C1=C(C)N[C@@]2(O)c3ccccc3C(=O)[C@@]12O,inactive: 2.52%
22,Cn1cc(CN2CCC(C(=O)N3CCCCC3)CC2)c(-c2ccccc2F)n1,inactive: -5.51%
23,CCOc1ccc(CC2CCC(=O)NC2=O)cc1 (stereo not drawn),inactive: 0.225%
24,Cc1ccc(C2=NOC(=O)/C2=C\C=C\c2ccccc2)cc1,inactive: -267%
25,O=C(COc1cc(O)c2c(=O)c3ccccc3oc2c1)OCc1ccccc1,inactive: -3.34%

row,SMILES,inhibition
1,CC(C)=CCCC1=CCC2C(=O)NNC(=O)C2C1 (stereo not drawn),inactive: 4.45%
2,COc1ccc(C(=O)Nc2nc3ccccc3c(=O)[nH]2)cc1,inactive: -2.12%
3,CC(C)(C)OC(=O)COc1cc(OCC(=O)OC(C)(C)C)c2c(=O)cc(-c3ccccc3)oc2c1,inactive: 17.5%
4,Cc1nc2c(c3c1[nH]c1ccccc13)C(=O)CC(C)(C)C2,inactive: -15.9%
5,CN(C)c1cc(NC(=O)CN2CCOCC2)c2ccccc2n1,inactive: 13.4%
6,CC(C)c1cc(=O)oc2c3c4c(cc12)CCCN4CCC3,inactive: -27%
7,CSCC[C@H](NC(=O)OC(C)(C)C)C(=O)N1CCC(C(=O)N[C@@H](C)C(=O)O)CC1,inactive: -2.27%
8,COc1ccc(/C=C2\CC/C(=C\c3ccc(OC)c(OC)c3)C2=O)cc1OC,inactive: 7.46%
9,COc1cc2c(cc1O)CCN(C(=O)c1ccco1)C2C (stereo not drawn),inactive: -4.8%
10,CCC(C)NCCOc1ccccc1C (stereo not drawn),inactive: -7.23%
11,O=C1Nc2ccc3sc4ccccc4c3c2C1=O,inactive: 31.8%
12,COc1ccccc1NC(=O)N1CCc2[nH]c3ccc(Cl)cc3c2C1,inactive: -3.48%
13,CC12CCCCN1CCCc1c2[nH]c2ccccc12 (stereo not drawn),inactive: -495%
14,Cn1c(=O)c2c(ncn2CC(O)CO)n(C)c1=O (stereo not drawn),inactive: 4.42%
15,COc1cccc(N2C(=O)CC(c3c[nH]c4ccccc34)C2=O)c1 (stereo not drawn),inactive: -22.5%
16,O=C(O)C1CSC(c2ccc3c(c2)OCO3)N1 (stereo not drawn),inactive: -10.3%
17,N=C1C(c2ccccc2)=C(O)CN1CCCO,inactive: -1.52%
18,CO/N=C(\C(=O)N[C@@H]1C(=O)N2C(C(=O)O)=C(COC(C)=O)CS[C@H]12)c1csc(N)n1 (stereo in doubt),inactive: -14.2%
19,NC(=O)c1cccnc1,inactive: 1.12%
20,COC(=O)CN1CC(=O)N(c2ccccc2)C1=S,inactive: -5.99%
21,O=C(/C=C/Sc1ccccc1)c1ccccc1,inactive: 15.7%
22,C=CCC1(O)C(=O)N2C(=C1C(=O)N1CCOCC1)c1ccccc1CC2(C)C (stereo not drawn),inactive: -5%
23,Cc1c(OC(=O)CNC(=O)OC(C)(C)C)ccc2c3c(c(=O)oc12)CCC3,inactive: -6.45%
24,OCCC1CN(Cc2ccccc2-c2ccco2)CCN1C1CCCC1 (stereo not drawn),inactive: -0.005%
25,COc1ccccc1C(CC(=O)Nc1ccccc1C)c1ccc(OC(C)C)cc1 (stereo not drawn),inactive: 6.61%

row,SMILES,inhibition
1,COc1ccc(CCNC(=S)NC(=O)/C=C/c2ccc(C)cc2)cc1OC,inactive: -6.55%
2,O=c1nc2n(c3c1oc1ccccc13)Cc1ccccc1-2,inactive: 0.916%
3,COc1cc(C2C(C(=O)c3ccc(C)o3)=C(O)C(=O)N2Cc2cccnc2)ccc1O (stereo not drawn),inactive: -15.4%
4,CC(=O)Oc1c2occc2cc2ccc(=O)oc12,inactive: -13.7%
5,COc1c(C=O)c(CCN(C)C(=O)c2ccc(F)cc2)cc2c1OCO2,inactive: -6.18%
6,CC1(C)Cc2ccccc2-c2nc(-c3ccccc3)oc(=O)c21,inactive: -17.7%
7,C=CC1=C(C(=O)O)N2C(=O)C(NC(=O)Cc3ccccc3)C2SC1 (stereo not drawn),inactive: -31.6%
8,CCOC(=O)c1cccc(P(C)(C)=O)c1,inactive: -0.62%
9,CCOCCCNCc1cn(-c2ccc(F)cc2F)nc1-c1ccccc1C,inactive: 9.75%
10,C=CCc1ccccc1OCC(O)CNC(C)C (stereo not drawn),inactive: 0.118%
11,O=C(Cc1ccccc1)NNC(=O)Cc1ccccc1,inactive: 0.18%
12,CCCCOc1ccc(CC(=O)NO)cc1,inactive: 0.125%
13,CC(=O)OC(C)C[N+](C)(C)C (stereo not drawn),inactive: -9.81%
14,CC(=O)Nc1ccccc1C(=O)C(=O)Nc1ccccc1,inactive: 5.62%
15,Cc1ccccc1OCC(O)CN1CCN(C)CC1 (stereo not drawn),inactive: -3.62%
16,N/C(=N\OC(=O)/C=C/c1ccccc1)c1ccc(Br)cc1,inactive: -5.01%
17,Nc1ccc2nc(Cc3ccccc3)[nH]c2c1,inactive: 33.4%
18,CN(C)CCC(c1ccccc1)c1ccccn1 (stereo not drawn),inactive: -0.77%
19,CC1(C)C(=O)OC(C(=O)c2ccc(Cl)cc2)C(C)(C)C1=O (stereo not drawn),inactive: 0.981%
20,O=C(O)CCCCCCNC(=O)c1cncc(O)c1,inactive: 3.04%
21,CC[C@]1(O)C[C@@H]2CN(CCc3c([nH]c4ccccc34)[C@@](C(=O)OC)(c3cc4c(cc3OC)N(C)[C@H]3[C@@](O)(C(=O)OC)[C@H](OC(C)=O)[C@]5(CC)C=CCN6CC[C@]43[C@@H]65)C2)C1,inactive: -86.1%
22,CN(C)CCOC(c1ccccc1)c1ccccc1 (tested in a mixture with another compound),inactive: 0.693%
23,CCN(CCCc1ccccc1)CCCc1ccccc1,inactive: -3.65%
24,COc1ccc(C2c3c(n[nH]c3C)CC(C)(O)C2C(C)=O)cc1OC (stereo not drawn),inactive: -2.26%
25,CC12CCC(C(=O)N(CCC#N)CCC#N)(CC1=O)C2(C)C (stereo not drawn),inactive: -4.83%

# By substructure: those above containing sulfur
row,SMILES,inhibition
1,COc1cc(NC(=S)NC(=O)c2cccs2)ccc1NC(=O)C(C)C,inactive: 0.955%
4,COc1cccc(OCc2nnc(-c3cccs3)o2)c1,inactive: 3.65%
6,COc1ccccc1OS(=O)(=O)c1ccc(NC(C)=O)cc1,inactive: 3.22%
12,COCCCN1C(=O)/C(=C\c2cccs2)C(C(=O)OC)=C1C,inactive: -5.14%
15,Cc1cccc(N(C)C(=S)Oc2ccc3ccccc3c2)c1,inactive: 8.78%
7,CSCC[C@H](NC(=O)OC(C)(C)C)C(=O)N1CCC(C(=O)N[C@@H](C)C(=O)O)CC1,inactive: -2.27%
11,O=C1Nc2ccc3sc4ccccc4c3c2C1=O,inactive: 31.8%
16,O=C(O)C1CSC(c2ccc3c(c2)OCO3)N1 (stereo not drawn),inactive: -10.3%
18,CO/N=C(\C(=O)N[C@@H]1C(=O)N2C(C(=O)O)=C(COC(C)=O)CS[C@H]12)c1csc(N)n1 (stereo in doubt),inactive: -14.2%
20,COC(=O)CN1CC(=O)N(c2ccccc2)C1=S,inactive: -5.99%
21,O=C(/C=C/Sc1ccccc1)c1ccccc1,inactive: 15.7%
1,COc1ccc(CCNC(=S)NC(=O)/C=C/c2ccc(C)cc2)cc1OC,inactive: -6.55%
7,C=CC1=C(C(=O)O)N2C(=O)C(NC(=O)Cc3ccccc3)C2SC1 (stereo not drawn),inactive: -31.6%

# 3 entries out of the list, sorted by length of the SMILES, smallest number first.
row,SMILES,inhibition
14,Cn1c(=O)c2c(ncn2CC(O)CO)n(C)c1=O (stereo not drawn),inactive: 4.42%
9,CCOCCCNCc1cn(-c2ccc(F)cc2F)nc1-c1ccccc1C,inactive: 9.75%
7,CSCC[C@H](NC(=O)OC(C)(C)C)C(=O)N1CCC(C(=O)N[C@@H](C)C(=O)O)CC1,inactive: -2.27%

# Later entries:

row,SMILES,inhibition
1,Nc1ccc(N=Nc2ccccc2)c(N)n1,inactive: 27.1%
2,CC(C)COc1ccc(Cc2cnc(N)nc2N)cc1,inactive: 11.8%
3,CCN(CC)C(=O)N1CCN(C)CC1,inactive: -10.1%
4,O=C1CCCN1C(=O)CCC(=O)N1CCCC1=O,inactive: 5.72%
5,COc1ccc(C2NC(=O)c3ccccc3O2)c(OC)c1OC (stereo not drawn),inactive: -1.29%
6,O=C(CC(NC(=O)OCc1ccccc1)C(=O)O)OCc1ccccc1 (stereo not drawn),inactive: -2.85%
7,Cc1cccc2c(C(=O)O)cc(-c3cccnc3)nc12,inactive: -3.93%
8,COC(=O)C1=C(C)N(Cc2ccco2)C(=O)/C1=C\c1ccc([N+](=O)[O-])cc1,inactive: -17.8%
9,CC(C)(C)C(=O)NC(=S)Nc1sc2c(c1C(N)=O)CCC2,inactive: -18.1%
10,Cc1ccc(S(=O)(=O)N[C@@H](C)C(=O)N2CCC(C(=O)N3CCC[C@H]3C(=O)O)CC2)cc1,inactive: -7.39%
11,CCOC(=O)C1C(=O)OC(C)(C)C1C(C)C(=O)c1ccc(C)cc1 (stereo not drawn),inactive: -1.73%
12,CC1(C)CC(=O)C(C(=O)CCCCC(=O)C2C(=O)CC(C)(C)CC2=O)C(=O)C1,inactive: -11.5%
13,O=C(Cc1cccc2ccccc12)N1CC[C@@]2(O)CCCC[C@H]2C1,inactive: -0.364%
14,CCOC(=O)c1ccccc1NC(=O)c1ccc(F)cc1,inactive: 18.1%
15,OCC(O)CN1CCN(c2ccccc2)CC1 (stereo not drawn),inactive: -2.28%
16,CC(C)C[C@H](NC(=O)NC(C)C)C(=O)O,inactive: -9.64%
17,CN(C)CCC(c1ccc(Cl)cc1)c1ccccn1 (stereo not drawn),inactive: -8.82%
18,COc1ccc(-c2coc3cc(O)cc(O)c3c2=O)cc1,inactive: 8.53%
19,O=C(CC1(O)C(=O)Nc2ccccc21)c1ccccc1O (stereo not drawn),inactive: -5.15%
20,COc1ccc(C(=O)c2oc3ccc(Br)cc3c2NC(C)=O)cc1,inactive: -7.64%
21,COc1ccccc1C1C(C#N)=C(N)Oc2c1oc(CO)cc2=O (stereo not drawn),inactive: -33.9%
22,Cc1ccc(NC(=O)CSc2nc(O)c(Cc3ccccc3)c(=O)n2-c2ccccc2)cc1,inactive: -2.81%
23,COCCCN1C(=O)C(=O)/C(=C(/O)c2ccc3c(c2)CC(C)O3)C1c1cccnc1 (stereo not drawn),inactive: -3.72%
